The source of these data is publication PMC11696179, “Molecular condensation of the CO/NF-YB/NF-YC/FT complex gates floral transition in Arabidopsis” (The EMBO Journal, 2024).

Amino acid sequences for entries named in this document (tags omitted). A change or cut given only in a name is not applied to a line headed by its entry.
UniProt Q39057: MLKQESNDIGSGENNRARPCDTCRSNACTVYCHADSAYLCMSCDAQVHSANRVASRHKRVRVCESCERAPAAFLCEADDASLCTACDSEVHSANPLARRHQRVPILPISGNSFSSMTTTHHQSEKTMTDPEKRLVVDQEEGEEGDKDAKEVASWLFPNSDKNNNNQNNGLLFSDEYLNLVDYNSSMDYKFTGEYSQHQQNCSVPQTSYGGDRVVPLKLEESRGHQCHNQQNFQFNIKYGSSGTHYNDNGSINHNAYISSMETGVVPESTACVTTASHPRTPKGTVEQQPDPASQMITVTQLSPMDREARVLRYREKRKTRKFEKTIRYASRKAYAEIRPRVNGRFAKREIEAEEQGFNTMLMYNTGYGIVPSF
UniProt Q8L4B2: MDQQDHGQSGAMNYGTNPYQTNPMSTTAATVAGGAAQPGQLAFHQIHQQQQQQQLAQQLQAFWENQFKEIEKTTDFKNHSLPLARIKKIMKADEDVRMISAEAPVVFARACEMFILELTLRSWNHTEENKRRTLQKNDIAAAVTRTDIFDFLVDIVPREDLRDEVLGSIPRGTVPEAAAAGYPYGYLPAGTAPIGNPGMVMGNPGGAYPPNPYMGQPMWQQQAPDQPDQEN

For the test, the target named is CO (CONSTANS), yeast two-hybrid fusion (Arabidopsis thaliana) (UniProt Q39057). Kind of test: two-hybrid; yeast AH109; pGBKT7 and pGADT7 fusions; growth on SD/-Trp/-Leu/-His with 10 mM 3-AT.

Results are given in words; binding and its absence hold for the method and conditions named. Binding calls can cover weak binding; strength is not graded here.

For the substance “NF-YC9-∆IDR1, yeast two-hybrid fusion (from UniProt Q8L4B2) (domain or fragment)”, the binding entry is listed as “binds”.
Regarding “NF-YC9-∆IDR2, yeast two-hybrid fusion (from UniProt Q8L4B2) (domain or fragment)”, the binding entry was “binds”.
